Test results: PubChem BioAssay AID624291 (National Center for Advancing Translational Sciences (NCATS), 2012)
Screen size: about 350,000 compounds; about 220 (0.063%) were called active. The inconclusive results got no clear call from the source; some entries with a clear call stand among them for comparison. Calls come from the whole dose curve; as a rule, active = well fitted activation curve with a large enough effect; inconclusive = small, poorly fitted or top-dose-only effect; inactive = no such curve, though single readings can be large or run the other way. A potency beside an inconclusive call is a rough fit, not a confirmed value.
Potency is the fitted concentration of half-maximal effect.

Test: qHTS for Activators of Integrin-Mediated Alleviation for Muscular Dystrophy; note: nearly all actives have a fitted effect of over 60% in size;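 for activation: 100% = response of the positive control SU9516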
Details: alpha7betagal myoblasts, beta-gal FDG fluorescence, 48 h; activation: at 38.3 µM (top of the series)
In short: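 alpha7betagal+/- myoblasts (passage 13, 250/well) treated 48 h at 37C with compounds at 1:260 dilution of DMSO stock. Lysed, then beta-galactosidase activity read as FDG fluorescence (ex 480/em 540) after 30 min, with pre-read for autofluorescence.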
For `CCC(=O)Nc1ccc2c(c1)Cc1cc([N+](=O)[O-])ccc1-2`, the “activation” value was inactive: 12.8%. In the case of `O=C(CCNC(=O)c1ccccc1Cl)N/N=C\c1ccc(O)cc1`, the Potency is reported as inconclusive: 5.01 µM [activator, single point]. In the case of `CCOC(=O)c1c(C)[nH]c(C(=O)COC(=O)c2[nH]c(C)c(C(C)=O)c2C)c1C`, the activation is reported as inactive: 6.51% [at 7.66 µM]. With `Cc1ccc(C(=O)Nc2ccccc2N2CCCC2)cc1S(=O)(=O)N1CCOCC1` the “activation” value was inactive: 12.6%. For `O=C(c1cccc([N+](=O)[O-])c1)N1CCOCC1`, the Potency was inconclusive: 3.16 µM [activator, partial curve, poor fit]. With `Cc1ccc(NC(=O)NCc2nc3ccccc3n2C)cc1` the Potency was active: 4.47 µM. For `Cc1cccc(C(=O)NNC(=S)NC(=O)c2ccccc2)c1`, the Potency was inconclusive: 3.16 µM [activator, partial curve, poor fit]. For `CC(C)c1ccc(C(=O)NN2CCOCC2)cc1`, the “activation” value was inactive: 2.45%. For `CC(=O)Nc1ccc(S(=O)(=O)NNC(=O)c2ccc([N+](=O)[O-])cc2)cc1`, the Potency was inconclusive: 3.16 µM [activator, single point]. With `CCn1c(SCC(=O)OC(C)C)nnc1-c1cccc(Cl)c1` the Potency was inconclusive: 8.91 µM [activator, partial curve, poor fit]. In the case of `COc1ccccc1N1CCN(C(=O)CSc2nc(C)c(C)c(=O)[nH]2)CC1`, the Potency is reported as inconclusive: 28.2 µM [activator, single point]. For `Cc1nnc(SCC(=O)NC(C)(C)C)n1NCc1ccc(N(C)C)cc1`, the Potency was inconclusive: 3.55 µM [activator, single point]. With `COC(=O)C1CCN(C(=O)CN2C(=O)NC(CCc3ccccc3)C2=O)CC1` (centres undefined) the Potency was inconclusive: 2.82 µM [activator, full curve, poor fit]. With `COC(=O)C12OCC34C(CC5C(C)=C(O)C(=O)CC5(C)C3C(O)C1O)OC(=O)C(OC(=O)C=C(C)C)C24` (centres undefined) the activation was inconclusive: -7.7% [activator]. In the case of `O=C(O)c1ccc(COc2ccc3c4c(c(=O)oc3c2)CCC4)o1`, the Potency is reported as inconclusive: 28.2 µM [activator, single point]. With `COc1ccc(OC2CCN(S(=O)(=O)c3cccc(F)c3)CC2)cc1` the Potency was inconclusive: 11.2 µM [activator, single point]. With `COc1ccc(C(=O)c2sc(NC(C)C)nc2N)cc1OC` the “activation” value was inactive: 3.54%. With `O=C(COc1nsnc1N1CCOCC1)Nc1ccccc1Cl` the Potency was inconclusive: 5.01 µM [activator, single point]. With `Cc1cccc(C(=O)O/N=C(\N)Cc2ccc([N+](=O)[O-])cc2)c1` the “activation” value was inactive: 0.846%.
